The values below come from PMC4019850.

By UniProt entry, the sequences of proteins in these tests, tags left out. Where a name states a change or a piece, a line headed by the entry shows the natural chain unless it says otherwise. Residues count along the entry.
UniProt Q14160: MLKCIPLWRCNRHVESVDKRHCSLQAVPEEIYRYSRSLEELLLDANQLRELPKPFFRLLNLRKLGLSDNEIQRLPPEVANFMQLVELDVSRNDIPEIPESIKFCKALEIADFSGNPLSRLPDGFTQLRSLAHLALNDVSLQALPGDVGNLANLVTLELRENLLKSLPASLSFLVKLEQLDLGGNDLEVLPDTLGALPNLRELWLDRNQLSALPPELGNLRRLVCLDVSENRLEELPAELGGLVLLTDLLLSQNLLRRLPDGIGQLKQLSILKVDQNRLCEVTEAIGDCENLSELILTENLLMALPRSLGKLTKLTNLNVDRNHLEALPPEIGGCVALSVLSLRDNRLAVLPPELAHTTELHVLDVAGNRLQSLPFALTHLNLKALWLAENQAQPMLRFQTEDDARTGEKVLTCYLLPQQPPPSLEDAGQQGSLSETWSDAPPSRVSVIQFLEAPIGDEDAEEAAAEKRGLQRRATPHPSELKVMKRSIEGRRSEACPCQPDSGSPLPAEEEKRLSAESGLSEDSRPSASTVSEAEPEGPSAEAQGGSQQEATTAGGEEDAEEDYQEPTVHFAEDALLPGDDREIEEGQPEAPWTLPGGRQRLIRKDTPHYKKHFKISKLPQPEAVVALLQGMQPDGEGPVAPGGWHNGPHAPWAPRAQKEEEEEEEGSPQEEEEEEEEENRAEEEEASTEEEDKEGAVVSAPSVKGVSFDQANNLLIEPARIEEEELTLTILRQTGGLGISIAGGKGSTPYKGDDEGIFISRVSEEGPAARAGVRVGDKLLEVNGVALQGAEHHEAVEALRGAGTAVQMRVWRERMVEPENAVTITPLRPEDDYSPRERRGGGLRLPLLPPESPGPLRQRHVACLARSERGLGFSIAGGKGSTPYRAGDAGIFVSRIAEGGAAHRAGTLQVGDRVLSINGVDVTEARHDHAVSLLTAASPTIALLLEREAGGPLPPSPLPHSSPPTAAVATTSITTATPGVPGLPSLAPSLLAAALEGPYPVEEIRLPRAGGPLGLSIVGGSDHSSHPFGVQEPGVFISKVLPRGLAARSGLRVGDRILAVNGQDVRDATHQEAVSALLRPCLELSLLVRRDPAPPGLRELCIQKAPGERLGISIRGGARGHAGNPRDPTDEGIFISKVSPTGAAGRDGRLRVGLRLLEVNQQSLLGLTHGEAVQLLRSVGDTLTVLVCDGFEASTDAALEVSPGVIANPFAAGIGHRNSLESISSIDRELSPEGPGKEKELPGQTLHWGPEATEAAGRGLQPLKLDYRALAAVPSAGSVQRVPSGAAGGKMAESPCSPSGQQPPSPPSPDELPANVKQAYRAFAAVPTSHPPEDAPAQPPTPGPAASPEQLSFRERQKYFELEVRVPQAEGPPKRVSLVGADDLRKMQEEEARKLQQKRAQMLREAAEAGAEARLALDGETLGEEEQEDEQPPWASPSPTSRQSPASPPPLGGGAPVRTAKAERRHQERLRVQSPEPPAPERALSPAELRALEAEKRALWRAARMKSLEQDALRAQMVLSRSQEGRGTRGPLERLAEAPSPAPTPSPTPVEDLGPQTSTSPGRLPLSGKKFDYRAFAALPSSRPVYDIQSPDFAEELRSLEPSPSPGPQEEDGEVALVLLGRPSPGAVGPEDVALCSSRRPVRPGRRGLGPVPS
UniProt P62993: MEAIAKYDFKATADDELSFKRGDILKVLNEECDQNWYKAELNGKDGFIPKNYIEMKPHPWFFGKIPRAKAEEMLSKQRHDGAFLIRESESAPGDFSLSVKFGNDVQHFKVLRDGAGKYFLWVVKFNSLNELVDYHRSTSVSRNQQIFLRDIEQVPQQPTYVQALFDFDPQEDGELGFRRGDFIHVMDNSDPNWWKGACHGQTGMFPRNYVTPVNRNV
GST fusion of the SH2 domain of GRB2: residues 60-152 of P62993

The target of experiment [1] is HA-SCRIB (UniProt Q14160). Kind of experiment: co-IP; H1299 transfected with HA-SCRIB, Flag-DUSP26 or both; immunoprecipitation with anti-Flag or with anti-HA; detection with anti-SCRIB or anti-DUSP26.
Experiment [2] concerns the target scaffold protein GRB2 (human (endogenous in HeLa)) (UniProt P62993). Briefly: co-IP; HeLa co-transfected with Flag-PTPN21 and Y527F SRC; immunoprecipitation with anti-GRB2; blot with anti-Flag.
Experiment [3] deals with GST fusion of the SH2 domain of GRB2 (UniProt P62993). Kind of experiment: pull-down; 50 μg GST fusion of a GRB2 domain incubated with lysate (RIPA buffer) of HeLa transfected with Flag-PTPN21, in presence or absence of Y527F SRC; glutathione-Sepharose 4B, 4°C; blot with anti-Flag; only the target purified.

No constants are given. Whether binding was seen depends on the method and setting. Binding seen in cells or lysates may run through a third protein. Some binding calls cover weakened binding; strength is not graded here. Where a sequence is shown, tags or fusion partners need not be part of it.

B1: Flag-DUSP26 (enzyme, UniProt Q9BV47 1-211)
chain: MCPGNWLWASMTFMARFSRSSSRSPVRTRGTLEEMPTVQHPFLNVFELERLLYTGKTACNHADEVWPGLYLGDQDMANNRRELRRLGITHVLNASHSRWRGTPEAYEGLGIRYLGVEAHDSPAFDMSIHFQTAADFIHRALSQPGGKILVHCAVGVSRSATLVLAYLMLYHHLTLVEAIKKVKDHRGIIPNRGFLRQLLALDRRLRQGLEA
As for B1, the binding result in experiment [1] was “binds”.

B2: Flag-PTPN21 (enzyme, UniProt Q16825 1-1174)
chain: MPLPFGLKLKRTRRYTVSSKSCLVARIQLLNNEFVEFTLSVESTGQESLEAVAQRLELREVTYFSLWYYNKQNQRRWVDLEKPLKKQLDKYALEPTVYFGVVFYVPSVSQLQQEITRYQYYLQLKKDILEGSIPCTLEQAIQLAGLAVQADFGDFDQYESQDFLQKFALFPVGWLQDEKVLEEATQKVALLHQKYRGLTAPDAEMLYMQEVERMDGYGEESYPAKDSQGSDISIGACLEGIFVKHKNGRHPVVFRWHDIANMSHNKSFFALELANKEETIQFQTEDMETAKYIWRLCVARHKFYRLNQCNLQTQTVTVNPIRRRSSSRMSLPKPQPYVMPPPPQLHYNGHYTEPYASSQDNLFVPNQNGYYCHSQTSLDRAQIDLNGRIRNGSVYSAHSTNSLNNPQPYLQPSPMSSNPSITGSDVMRPDYLPSHRHSAVIPPSYRPTPDYETVMKQLNRGLVHAERQSHSLRNLNIGSSYAYSRPAALVYSQPEIREHAQLPSPAAAHCPFSLSYSFHSPSPYPYPAERRPVVGAVSVPELTNAQLQAQDYPSPNIMRTQVYRPPPPYPPPRPANSTPDLSRHLYISSSNPDLITRRVHHSVQTFQEDSLPVAHSLQEVSEPLTAARHAQLHKRNSIEVAGLSHGLEGLRLKERTLSASAAEVAPRAVSVGSQPSVFTERTQREGPEEAEGLRYGHKKSLSDATMLIHSSEEEEDEDFEEESGARAPPARAREPRPGLAQDPPGCPRVLLAGPLHILEPKAHVPDAEKRMMDSSPVRTTAEAQRPWRDGLLMPSMSESDLTTSGRYRARRDSLKKRPVSDLLSGKKNIVEGLPPLGGMKKTRVDAKKIGPLKLAALNGLSLSRVPLPDEGKEVATRATNDERCKILEQRLEQGMVFTEYERILKKRLVDGECSTARLPENAERNRFQDVLPYDDVRVELVPTKENNTGYINASHIKVSVSGIEWDYIATQGPLQNTCQDFWQMVWEQGIAIIAMVTAEEEGGREKSFRYWPRLGSRHNTVTYGRFKITTRFRTDSGCYATTGLKMKHLLTGQERTVWHLQYTDWPEHGCPEDLKGFLSYLEEIQSVRRHTNSTSDPQSPNPPLLVHCSAGVGRTGVVILSEIMIACLEHNEVLDIPRVLDMLRQQRMMLVQTLCQYTFVYRVLIQFLKSSRLI
As for B2, the binding result in experiment [2] is “binds”; in experiment [3], “no binding”.
